Experimental data as given in paper PMC7819943, “Rice protein-binding microarrays: a tool to detect cis-acting elements near promoter regions in rice”.
The other results are listed elsewhere or left out.

Protein sequences, listed by entry. Tags and fused reporters are not part of them.
UniProt Q0JBA9, entry or part of it: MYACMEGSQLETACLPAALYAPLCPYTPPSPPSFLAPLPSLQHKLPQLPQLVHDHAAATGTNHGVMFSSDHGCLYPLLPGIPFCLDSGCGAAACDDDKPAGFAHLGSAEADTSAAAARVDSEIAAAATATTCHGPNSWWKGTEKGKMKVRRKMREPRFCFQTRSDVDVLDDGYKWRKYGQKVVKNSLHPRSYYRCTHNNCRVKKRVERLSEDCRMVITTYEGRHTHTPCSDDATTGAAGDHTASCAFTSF

These sequences were tested against OsWRKY34 (Oryza sativa, UniProt Q0JBA9 1-250) (assay: protein-binding microarray (RPBM); PBS, 2% BSA, 51.3 ng/ul salmon testes DNA, 50 uM zinc acetate, 200 nM TF, 25 C, 1 h; high values mean tight binding). Settings: protein: recombinant; tags: N-terminal polyhistidine and DsRed monomer fusion (pET32a); label: CyDye5-dUTP incorporated in the synthesized complementary strand; 3' TTTTT single-stranded linker to array surface; dsDNA, one strand shown.
In short: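 Per-feature fluorescence intensity (arbitrary units), read on an Axon 4000B scanner, is the binding signal. Transcription factors carrying an N-terminal polyhistidine tag and DsRed fusion were expressed in E. coli BL21-CodonPlus and purified on Ni–NTA. A custom Agilent array, made double-stranded by primer extension with Cy5-dUTP and blocked with 2% BSA, was incubated with 200 nM protein in PBS, 2% BSA, salmon testes DNA and 50 µM zinc acetate at 25 °C for 1 h and then washed.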
With “TCGTCGGGTTGGTCTCACCTTTTTCTCCTTTTCTTTTTTTCGGAGTCACCTAGTGCAG” the binding signal was 12100 fluorescence intensity (a.u.). With “TACTTCTGCCACATGGATACATCACATAACACACTCGCAACGGAGTCACCTAGTGCAG” the binding signal was 9260 fluorescence intensity (a.u.). For “CTGTCGCAATCTTGCTTCGGTTCATTTTGTCCCTTTGCTCCGGAGTCACCTAGTGCAG”, the binding signal was 11200 fluorescence intensity (a.u.). In the case of “CCCAAGTTTGACTCCCTCGAGACCCACCACCACCACCACGCGGAGTCACCTAGTGCAG”, the binding signal is reported as 8970 fluorescence intensity (a.u.). “TATCCCTACTACTATAAAAGGGCAGTCGTATCTTTCCTTCCGGAGTCACCTAGTGCAG” was tested, and the binding signal was 9520 fluorescence intensity (a.u.). With “ACACGTGTGGTAACCCTTCGCTCTGCATCCTCGTCTTAATCGGAGTCACCTAGTGCAG” the binding signal was 8880 fluorescence intensity (a.u.). “GAAGTCGTTATTTCCAAGCTACGTCCTGATTCTATTGATACGGAGTCACCTAGTGCAG” was tested, and the binding signal was 11100 fluorescence intensity (a.u.). With “CTCCCATGCGTGCTAAATTAGCGTTCATGGTTGTATCTTGCGGAGTCACCTAGTGCAG” the binding signal was 9750 fluorescence intensity (a.u.). “TCTATCTGGATTTGATTTTTAGTCCGTGTTTAGATCTCCTCGGAGTCACCTAGTGCAG” was tested, and the binding signal was 10000 fluorescence intensity (a.u.). For “CATCAGTTCACCACCACCGCCCATATGCATTCATGGTCCTCGGAGTCACCTAGTGCAG”, the binding signal was 8040 fluorescence intensity (a.u.). “TTAGGGTGGTTACTGTAAAATTTGGACTCCTTTGCAAATTCGGAGTCACCTAGTGCAG” was tested, and the binding signal was 8260 fluorescence intensity (a.u.). With “GAGCCCGGCCGGCTGCACCTTTCGCTAAGGCCGTGTGTTTCGGAGTCACCTAGTGCAG” the binding signal was 8100 fluorescence intensity (a.u.). With “GTCCTCTATATATGTAGTTGGTCTTGCTTTGACAGATATACGGAGTCACCTAGTGCAG” the binding signal was 11600 fluorescence intensity (a.u.). “CTATCTACTTCCACTTATAACATTTATTTAGCTTATAGTTCGGAGTCACCTAGTGCAG” was tested, and the binding signal was 10500 fluorescence intensity (a.u.). “CTCCGTCTTGATATTTTCGATTTGAATTTGGACTGATCTACGGAGTCACCTAGTGCAG” was tested, and the binding signal was 9700 fluorescence intensity (a.u.). “ACTGTTCACTCCTCGTCCTCTTGTTTTTTTTTGGCTTCGACGGAGTCACCTAGTGCAG” was tested, and the binding signal was 14200 fluorescence intensity (a.u.). “GGCGGCGGGGAGGTGGCGGCAAGGGAGGCGGCGGCGAGGGCGGAGTCACCTAGTGCAG” was tested, and the binding signal was 11200 fluorescence intensity (a.u.). For “CTCTCCATGCTATTGATGATGCACTTAGATTATGGTTTTTCGGAGTCACCTAGTGCAG”, the binding signal was 8460 fluorescence intensity (a.u.). With “GGTTCTATACTCCTAGGGAGTACGTACTCCTGCTCTCATCCGGAGTCACCTAGTGCAG” the binding signal was 8480 fluorescence intensity (a.u.). For “GCTTTATCTCTTCAATAGCCTTACCTACCTTACCTTACGTCGGAGTCACCTAGTGCAG”, the binding signal was 8180 fluorescence intensity (a.u.). “CCTTCTTTCCCAACTCACTTTTTTTTCGCACGCACGCTTTCGGAGTCACCTAGTGCAG” was tested, and the binding signal was 9060 fluorescence intensity (a.u.). “TAGCATATCTTTATTTCTTTCAGTATTGCAACTGAGCATTCGGAGTCACCTAGTGCAG” was tested, and the binding signal was 9760 fluorescence intensity (a.u.). In the case of “GGTGACTGATAATTATTATTTTCTTTGTTTCACATTATACCGGAGTCACCTAGTGCAG”, the binding signal is reported as 14200 fluorescence intensity (a.u.). For “CCCCACCTGTCAGCTTCCATGGCATGATCATTTCATCTTCCGGAGTCACCTAGTGCAG”, the binding signal was 13600 fluorescence intensity (a.u.). With “CTACACGTTGAATTATTTGCTTATCACTTTCCCTATCAGCCGGAGTCACCTAGTGCAG” the binding signal was 9100 fluorescence intensity (a.u.). In the case of “CAACCTTATCCTCTTGATTCTTCCTCTCCTCTCTCTCTCACGGAGTCACCTAGTGCAG”, the binding signal is reported as 8710 fluorescence intensity (a.u.). For “TTTTGGGGTGGGTTTTGGTATCTGATGCTTACGGGCATCTCGGAGTCACCTAGTGCAG”, the binding signal was 18100 fluorescence intensity (a.u.). In the case of “CACTCCGCCTGGCCCTCCGCTCCGCCGCCGCTCCGCCGGCCGGAGTCACCTAGTGCAG”, the binding signal is reported as 10500 fluorescence intensity (a.u.). “AACATTTTCCTTTGTAGCTAGGTTTCTGTTATCGGTTTTCCGGAGTCACCTAGTGCAG” was tested, and the binding signal was 14300 fluorescence intensity (a.u.). “CATTGTTCATATTCAATGTTTGACCGTTCGTCTTATTTGACGGAGTCACCTAGTGCAG” was tested, and the binding signal was 10200 fluorescence intensity (a.u.). For “TGATATGTTGGTGAATGGTAATTTTTTGGGTTGATATATTCGGAGTCACCTAGTGCAG”, the binding signal was 11200 fluorescence intensity (a.u.). For “GCCTGCCCGGCCACATCATGTTTCCATCGTTGTCCTCCTTCGGAGTCACCTAGTGCAG”, the binding signal was 15700 fluorescence intensity (a.u.). “TTTGTTTTATAAATCCGTCTCGCAATCATAGTAATATTATCGGAGTCACCTAGTGCAG” was tested, and the binding signal was 8300 fluorescence intensity (a.u.). In the case of “GCACAGTGGGAGGCCCGCGTTCTTTTTTTTTCGCCGGTTTCGGAGTCACCTAGTGCAG”, the binding signal is reported as 10000 fluorescence intensity (a.u.). For “TTTGACCAACCGAAACTCGACGGCCCACCCACCAACCACCCGGAGTCACCTAGTGCAG”, the binding signal was 9420 fluorescence intensity (a.u.). For “CATGGTACCTATTGCAGCTAGTCATAACAAGTTGTTCATACGGAGTCACCTAGTGCAG”, the binding signal was 8210 fluorescence intensity (a.u.). In the case of “CTATTTGCTTCGGTTGCACATTTTTTTTAATTACACATTACGGAGTCACCTAGTGCAG”, the binding signal is reported as 8600 fluorescence intensity (a.u.). For “AATCCTCATTCTTTCCTATTGGGTATATACATTACAATTACGGAGTCACCTAGTGCAG”, the binding signal was 9530 fluorescence intensity (a.u.). In the case of “AGCTATTCTAGTATTATTGGTTGCATGTTCATTAGTTTTGCGGAGTCACCTAGTGCAG”, the binding signal is reported as 9600 fluorescence intensity (a.u.). For “TCAAATCCCACAGCTGTCACAATTTATTCTTTTTCCCTTTCGGAGTCACCTAGTGCAG”, the binding signal was 10800 fluorescence intensity (a.u.). In the case of “CAATTGAATTCTGCAAAACATCACCTCCTGTCTTCAATTCCGGAGTCACCTAGTGCAG”, the binding signal is reported as 10500 fluorescence intensity (a.u.). In the case of “GGTTTCCGTGGTGGGCCGGTTTGGGCTTTTCTTTTTTACACGGAGTCACCTAGTGCAG”, the binding signal is reported as 18500 fluorescence intensity (a.u.).
